Results as given in patent US20250034250A1.
No constants are given. Whether binding was seen depends on the method and setting.

Molecular target: artificial CD33 molecule that contains only the V-set domain (CD33^ΔE3-4)
Assay: binding to cells displaying CD33^ΔE3-4

binding: no binding
B1: anti-CD33 antibody 1H7 (antibody, V domains shown)
VH: QVQLQQSGAELVKPGASVKISCKASGYAFSNYWMNWVKQRPGKGLEWIGQINPGDGDTNYNGKFKGKATLTADKSSSTAYMQLSSLTSEDSAVYFCAREDRDYFDYWGQGTTLTVSS
VL: DIQMTQTTSSLSASLGDRVTISCRASQDINYYLNWYQQKPDGTVKLLIYYSSRLHSGVPSRFSGSGSGTDFSLTISNLEQEDIATYFCQQDDALPYTFGGGTKLEIKR
